This note sets out measurements from the supplement of paper PMC9135407.

Each structure is given as a SMILES string. Values joined by “and” are separate entries in the source; they are usually repeats but may differ in a detail not shown here. Equal entries are not always repeated. Structures can show the parent of a compound that is named as a salt. ± gives the standard deviation of the averaged measurements. The list shows a part of the results. Baselines shift from plate to plate; read single values as rough.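 Primary human stellate myofibroblasts activated in culture; inactivation shown by regained lipid droplets. Readout: fraction of Hoechst-counted cells exceeding a per-plate Bodipy threshold, duplicate wells, each plate with DMSO negative and nortriptyline positive controls. Hits: control-normalized score beyond the plate's top-tenth-percentile nortriptyline wells, or among its three best wells. Final well concentrations unstated.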

For this test, the system named is primary human hepatic stellate cells (donor 1). Nature of the test: percent Bodipy-positive cells; higher = more lipid droplet accumulation. Conditions: 48 h.
Where [1] appears, read: library stock concentration: 10 mM.
[2] abbreviates: library stock concentration: 1 mM.
Setting [3] is: library stock concentration: 3.33 mM.
Setting [4] is: library stock concentration: 2 mM.

For `CC1(C)C[C@@H]1C(=O)N/C(=C\CCCCSC[C@H](N)C(=O)O)C(=O)O`, the “percent Bodipy-positive cells” value under setting [1] is 9.95 ± 0.93%.

Take `CC1(C)C[C@@H]1C(=O)N/C(=C\CCCCSC[C@H](N)C(=O)O)C(=O)O` [Cilastatin sodium]: the “percent Bodipy-positive cells” value under setting [1] is 5.92 ± 0.55%.

Take `Cc1cc(Cn2cnc3c2C[C@@H](C(=O)O)N(C(=O)C(c2ccccc2)c2ccccc2)C3)ccc1N`: under setting [1], the “percent Bodipy-positive cells” value came to 39.8 ± 9.6%.

For the compound `O=C(O)CCC(=O)O.O=C(O[C@H]1CN2CCC1CC2)N1CCc2ccccc2[C@@H]1c1ccccc1` [Solifenacin succinate], the “percent Bodipy-positive cells” value under setting [1] came out at 93.3 ± 1.8%.

Take `Oc1cc2c(cc1O)CN(C(=S)NCCc1ccc(Cl)cc1)CCC2` [Capsazepine]: the “percent Bodipy-positive cells” value is 5.15 ± 1.6% under setting [2]; 31.5% and 7.57% under setting [1].

Regarding `CCCCCC(=O)O[C@]1(C(C)=O)CC[C@H]2[C@@H]3CCC4=CC(=O)CC[C@]4(C)[C@H]3CC[C@@]21C` [Hydroxyprogesterone caproate], the “percent Bodipy-positive cells” value by setting is: (library stock concentration: 4.7 mM) 2.15 ± 0.96%; under setting [1], 23 ± 2%.

In the case of `NS(=O)(=O)C#Cc1ccccc1` [Pifithrin-mu], under setting [1], the “percent Bodipy-positive cells” value is 99.25 ± 0.66%.

In the case of `Cn1cc(C(=O)OCC2CCN(CCNS(C)(=O)=O)CC2)c2ccccc21`, under setting [1], the “percent Bodipy-positive cells” value worked out at 92.4 ± 3%.

As for `Cc1cc(C)cc(OCC2CNC(=O)O2)c1` (stereo not given) [Metaxalone], the “percent Bodipy-positive cells” value is, setting by setting: (library stock concentration: 9 mM) 13.4 ± 2.2%; under setting [1], 45.2 ± 5.7%.

For the compound `CC(=O)O[C@H]1C[C@@H]2CC[C@@H]3[C@H](CC[C@@]4(C)[C@H]3C[C@H]([N+]3(C)CCCCC3)[C@@H]4OC(C)=O)[C@@]2(C)C[C@@H]1N1CCCCC1`, under setting [1], the “percent Bodipy-positive cells” value came out at 6.11 ± 0.85%.

`CC(=O)O[C@H]1C[C@@H]2CC[C@@H]3[C@H](CC[C@@]4(C)[C@H]3C[C@H]([N+]3(C)CCCCC3)[C@@H]4OC(C)=O)[C@@]2(C)C[C@@H]1N1CCCCC1` [Vecuronium Bromide]: the “percent Bodipy-positive cells” value by setting is: under setting [3], 7.74 ± 2.9%; under setting [1], 12.7 ± 6.1%.

With `O=C(O)CCNc1cc(N2CCc3ccccc3CC2)nc(-c2cccnc2)n1`, the “percent Bodipy-positive cells” value is, setting by setting: (library stock concentration: 80 uM) 29.3 ± 0.64%; (library stock concentration: 400 uM) 40.5 ± 2%; under setting [4], 41.1 ± 3.4%; under setting [1], 47.6 ± 4.4%.

On to `CC1(C)C(=O)N=C2C1=C(O)C(=O)c1ccccc12`, for which the “percent Bodipy-positive cells” value under setting [1] amounted to 77.9 ± 1%.

`CCCCCCCC/C=C\CCCCCCCC(=O)NCCO` [Oleoyl Ethanolamide]: under setting [2], the “percent Bodipy-positive cells” value was determined as 6.78 ± 0.27%.

Turning to `CCCCCCCC/C=C\CCCCCCCC(=O)NCCO` [Oleylethanolamide], under setting [1], the “percent Bodipy-positive cells” value amounted to 17.9 ± 4.9%.

Take `CCCCCCCC/C=C\CCCCCCCC(=O)NCCO` [N-Oleoylethanolamine]: the “percent Bodipy-positive cells” value under setting [1] was 54.3 ± 2.6%.

With `Cc1nc(Nc2ncc(C(=O)Nc3c(C)cccc3Cl)s2)cc(N2CCN(CCO)CC2)n1`, the “percent Bodipy-positive cells” value reads like this: under setting [4], 74.4 ± 9%; under setting [1], 96.9 ± 1.7%.

On to `C[C@@H](O)[C@H]1C(=O)N2C(C(=O)O)=C(S[C@@H]3CN[C@H](C(=O)N(C)C)C3)[C@H](C)[C@H]12`, for which the “percent Bodipy-positive cells” value under setting [1] was determined as 10 ± 2.2%.

Regarding `C[C@@H](O)[C@H]1C(=O)N2C(C(=O)O)=C(S[C@@H]3CN[C@H](C(=O)N(C)C)C3)[C@H](C)[C@H]12` [Meropenem], the “percent Bodipy-positive cells” value is 10.1 ± 2.5%. Moreover, under setting [3], the “percent Bodipy-positive cells” value came to 4.49 ± 1.1%. In addition, under “library stock concentration: 5.2 mM”, the “percent Bodipy-positive cells” value was found to be 8.49 ± 1.6%. For the same compound, under setting [1], the “percent Bodipy-positive cells” value stood at 10.9 ± 5%.

For the compound `CC(=O)NCC(=O)N[C@H](CCC(=O)O)C(=O)O` [N-Acetylglycyl-D-glutamic acid], the “percent Bodipy-positive cells” value under setting [1] was 7.86 ± 0.52%.

In the case of `CCN(CC)C(=O)/C(C#N)=C/c1cc(O)c(O)c([N+](=O)[O-])c1` [Entacapone], the “percent Bodipy-positive cells” value under setting [3] amounted to 11.8 ± 2.6%, the “percent Bodipy-positive cells” value (library stock concentration: 6.6 mM) worked out at 13.3 ± 3.4% and the “percent Bodipy-positive cells” value under setting [1] came out at 42.1 ± 4.3%.

Regarding `C[C@@H]1O[C@@H](OC[C@H]2O[C@@H](Oc3c(-c4ccc(OCCO)c(OCCO)c4)oc4cc(OCCO)cc(O)c4c3=O)[C@H](O)[C@@H](O)[C@@H]2O)[C@H](O)[C@H](O)[C@H]1O` [Troxerutin], the “percent Bodipy-positive cells” value by setting is: under setting [3], 7.45 ± 0.6%; under setting [1], 20.9% and 30.8%.

In the case of `C[C@]12C=CC(=O)C=C1CC[C@H]1[C@@H]3C[C@@H](O)[C@](O)(C(=O)CO)[C@@]3(C)C[C@H](O)[C@@]12F` [Triamcinolone], the “percent Bodipy-positive cells” value is 19.8 ± 7.3%. Besides, the “percent Bodipy-positive cells” value under setting [3] came out at 10.7 ± 6.1%. Also, under “library stock concentration: 5.1 mM”, the “percent Bodipy-positive cells” value is 4.03% and 8.1%. The “percent Bodipy-positive cells” value under setting [1] was 18.2% and 24.8% and 21.4%.

Take `CC1(C)O[C@@H]2C[C@H]3[C@@H]4CCC5=CC(=O)CC[C@]5(C)[C@@]4(F)[C@@H](O)C[C@]3(C)[C@]2(C(=O)CCl)O1` [Halcinonide]: the “percent Bodipy-positive cells” value worked out at 5.96 ± 0.69%. Besides, the “percent Bodipy-positive cells” value under setting [3] is 5.89 ± 3.3%. Besides, under setting [1], the “percent Bodipy-positive cells” value is 22.5%.

On to `CC(C(C)N1CC(=O)NC(=O)C1)N1CC(=O)NC(=O)C1` (stereo not given), for which, for the setting “library stock concentration: 17.7 mM”, the “percent Bodipy-positive cells” value was 18.2 ± 5%.

`Nc1c(CC(=O)O)cccc1C(=O)c1ccc(Br)cc1` [Bromfenac Sodium]: the “percent Bodipy-positive cells” value under setting [3] came to 8.99 ± 1% and the “percent Bodipy-positive cells” value under setting [1] is 18.3 ± 4.4%.

For the compound `O=C(O)C=C1CCCc2ccccc2C1O` (stereo not given), the “percent Bodipy-positive cells” value under setting [1] is 24.6% and 5.62%.

With `COc1cccc(Nc2c(C(N)=O)cnc3c(C)cc(S(=O)(=O)c4cccc(C(=O)N(C)C)c4)cc23)c1`, the “percent Bodipy-positive cells” value was 8.02 ± 5.5% under setting [3] and 13.8 ± 3.5% under setting [1].

Consider `Cc1c(NC(=O)OC[C@@H]2COCCN2)cn2ncnc(Nc3ccc4c(cnn4Cc4cccc(F)c4)c3)c12.Cl`, for which the “percent Bodipy-positive cells” value is 81.6 ± 11% under setting [3] and 99.55 ± 0.044% under setting [1].

`CN1C(=O)OC(C)(C)C1=O` [Trimethadione]: the “percent Bodipy-positive cells” value is 27.1 ± 10%. Moreover, the “percent Bodipy-positive cells” value (library stock concentration: 14 mM) worked out at 13.9 ± 3.3%.

With `CC(=O)CCCCn1c(=O)c2c(ncn2C)n(C)c1=O` [Pentoxifylline], the “percent Bodipy-positive cells” value was found to be 34.9 ± 16%. Also, the “percent Bodipy-positive cells” value (library stock concentration: 7.2 mM) is 6.26% and 16.4%. Besides, the “percent Bodipy-positive cells” value under setting [1] is 19.8% and 37.7% and 40.3%.

As to `CN(C/C=C/c1ccccc1)Cc1cccc2ccccc12` [Naftifine hydrochloride], the “percent Bodipy-positive cells” value was determined as 16.8 ± 0.75%.

With `O=c1c(-c2ccc(O)cc2)coc2cc(O)ccc12` [Daidzein], the “percent Bodipy-positive cells” value is 18.4 ± 12% under setting [2] and 8.76 ± 2% under setting [3].

Take `CNCCCC12CCC(c3ccccc31)c1ccccc12.Cl` [Maprotiline HCl]: the “percent Bodipy-positive cells” value under setting [1] worked out at 93.2 ± 2.8%.

Regarding `CC(C)NC[C@H](O)COc1cccc2ccccc12` [(S)-(-)-Propranolol hydrochloride], the “percent Bodipy-positive cells” value under setting [1] turned out to be 45.3 ± 11%.

For the compound `CC(C)NC[C@H](O)COc1cccc2ccccc12` [(S)-propranolol hydrochloride], the “percent Bodipy-positive cells” value amounted to 34.6 ± 2.6%.

With `CC(C)NC[C@H](O)COc1cccc2ccccc12` [(S)-Propranolol hydrochloride], the “percent Bodipy-positive cells” value under setting [1] is 63 ± 2.1%.

For the compound `CC1(C)CC[C@]2(C(=O)O)CC[C@]3(C)C(=CC[C@@H]4[C@@]5(C)CC[C@H](O)C(C)(C)[C@@H]5CC[C@]43C)[C@@H]2C1` [Oleanolic Acid], the “percent Bodipy-positive cells” value is, setting by setting: under setting [3], 15.4 ± 5.8%; under setting [1], 18 ± 4.8%.
